Here are results for six substances from PMC4624765, “C-di-GMP Regulates Motile to Sessile Transition by Modulating MshA Pili Biogenesis and Near-Surface Motility Behavior in Vibrio cholerae” (PLoS Pathogens, 2015).

Results are given in words; binding and its absence hold for the method and conditions named.

This assay has as its target T1, CdgJ (Vibrio cholerae) (UniProt Q9KVK6).
T1 sequence: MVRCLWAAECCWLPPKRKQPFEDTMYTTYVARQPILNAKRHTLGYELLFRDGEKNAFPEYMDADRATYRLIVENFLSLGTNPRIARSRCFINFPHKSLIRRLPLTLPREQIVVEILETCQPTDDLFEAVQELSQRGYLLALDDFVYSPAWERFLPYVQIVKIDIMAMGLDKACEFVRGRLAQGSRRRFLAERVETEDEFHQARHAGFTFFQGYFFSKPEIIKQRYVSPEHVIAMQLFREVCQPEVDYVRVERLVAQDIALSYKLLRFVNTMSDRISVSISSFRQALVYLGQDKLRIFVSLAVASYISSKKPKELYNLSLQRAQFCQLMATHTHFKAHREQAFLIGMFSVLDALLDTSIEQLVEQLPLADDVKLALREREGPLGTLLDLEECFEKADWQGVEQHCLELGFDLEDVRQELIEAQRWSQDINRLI
Nature of the assay: two-hybrid; Bacterial Adenylate Cyclase Two-Hybrid System (BACTH), Euromedex; no further conditions told.

In the case of CdgH (Vibrio cholerae) (enzyme), the binding result is “no binding”. Next, CdgD (Vibrio cholerae) (enzyme): “no binding”. For MshE (Vibrio cholerae) (enzyme), the binding result is recorded as “no binding”. Take CdgK (Vibrio cholerae) (enzyme): the binding entry is “no binding”. Next, PilT (Vibrio cholerae) (enzyme): “no binding”. With CdgL (Vibrio cholerae) (enzyme), the binding entry is “no binding”.
